From ChEMBL document CHEMBL3988442, “University of Dundee, Small-Polar-MMV Screening Library” (2021).

The filed quantity is “Percent Effect” (%). How 0% and 100% were set is not recorded. Most values in the screen are low, and negative values occur. This is an unselected part of the compounds tested. Two or more numbers in one place are separate tests of the same structure; such repeats can differ widely.

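Viability assay of Plasmodium falciparum sporozoites; the read-out is not stated. The concentration is filed as 10 mM, unlikely as a test dose, so the dose is not known. Direction is inferred from retests: higher values go with lower viability. Strong results were mostly tested again. About 34,000 compounds were tested under these conditions; 0.84% (about 280) showed 50% or more at least once.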

Compound: CC(=O)N1CCCN(C(=O)NCCc2cc(Cl)cc(Cl)c2)CC1
percent effect: -12.41

Compound: Cc1nnc(CN2CCN(C(C)c3nc(C4CC4)no3)CC2)o1 (centres unmarked)
percent effect: 13.37

Compound: Cc1ccc(C2COCCN2C(=O)c2cccc(N(C)C)c2)o1 (centres unmarked)
percent effect: -2.451

Compound: Cc1nc2sccn2c1CN(CCCN(C)C)Cc1ccccn1.O=C(O)CC(O)(CC(=O)O)C(=O)O
percent effect: 4.107

Compound: CC(=O)Nc1nc(C(=O)NC(C)c2ccc(C#N)cc2)cs1 (centres unmarked)
percent effect: -6.689

Compound: O=C(O)C(F)(F)F.O=C(O)C(F)(F)F.O=C(O)C(F)(F)F.c1ccc(CN2Cc3[nH]nc(COc4cccnc4)c3C2)nc1
percent effect: 13.71

Compound: CN(C)C(=O)c1c[nH]nc1-c1ccc(CNC(=O)c2cnccn2)cc1
percent effect: -4.403

Compound: Cc1noc(C(C)N2CCN(CCC(=O)N3CCCCC3)CC2)n1 (centres unmarked)
percent effect: -14.77

Compound: Cc1nc(C)n(CC2CCCN(CCOc3ccc(F)cc3)C2)n1 (centres unmarked)
percent effect: -1.653

Compound: CNC(=O)CS(=O)(=O)C1CCN(S(=O)(=O)c2ccccc2Br)CC1
percent effect: -4.604

Compound: Cc1ncc(CN2CCCC(O)(c3ccc(F)cc3)CC2)n1C.O=C(O)CC(O)(CC(=O)O)C(=O)O (centres unmarked)
percent effect: -4.208

Compound: CC1COCCN1C(=O)COc1ccc(Oc2ccccn2)cc1 (centres unmarked)
percent effect: 62.7 and 63.29 and 47.53

Compound: Cc1ccccc1-c1cncc(C2CCN(Cc3cnn(C)c3)CC2)n1
percent effect: -6.673

Compound: Cc1cncc(C(=O)N[C@@H]2CC[C@@H](N3CCOCC3)[C@@H]2O)c1
percent effect: 3.598

Compound: [H][C@]12CC[C@]([H])(CN(C(=O)c3ccccn3)C1)N(C(=O)CCC1CCCC1)C2
percent effect: -7.632

Compound: [H][C@@]12CCCCN(C(=O)c3cnccn3)[C@]1([H])[C@@H](c1ccccc1)CCN2C
percent effect: -11.73

Compound: COc1cc(CN(C)C(=O)NCCC2CCCO2)ccc1SC (centres unmarked)
percent effect: -3.608

Compound: COCC(=O)N1CCC2(C1)c1ccccc1S(=O)(=O)N2CC1CC1 (centres unmarked)
percent effect: -5.893

Compound: CC(C)C(C)n1nccc1NC(=O)Cn1cnc2ccccc21 (centres unmarked)
percent effect: -7.418

Compound: CCn1nc2c(cc1=O)CN(Cc1nc(N)c3ccccc3n1)CC2
percent effect: -6.021

Compound: COCC(=O)N1CCC(c2nc3ccc(-c4ccccc4)cn3n2)CC1
percent effect: 9.635

Compound: CC(C)N(Cc1ccccn1)Cc1nc2c(cnn2C)c(=O)[nH]1
percent effect: 7.978

Compound: CCOc1cc(/C=C/c2ncc(C(=O)O)s2)ccc1O
percent effect: -2.387

Compound: CSCc1noc(Cn2ncn3cccc3c2=O)n1
percent effect: -9.091

Compound: COc1ccc(C(C#N)NC(=O)Cc2ccc(F)c(F)c2)c(OC)c1 (centres unmarked)
percent effect: 11.43

Compound: O=C(O)C(F)(F)F.[H][C@@]12CCN(C(=O)c3ccco3)C[C@]1([H])[C@@H](CN(C)C)OC2
percent effect: 9.689

Compound: Cc1nc(C)n(CC2CCCN2Cc2nc(-c3ccco3)no2)n1 (centres unmarked)
percent effect: -0.3641 and 0.04429 and -1.23

Compound: O=C(O)C(F)(F)F.[H][C@@]12C[C@H](C(=O)N3CCCO3)CN(CCc3ccccc3)[C@]1([H])CCO2
percent effect: -2.663

Compound: [H][C@@]12C[C@@H](O)CN1C[C@@H](Cc1ccccc1)N(Cc1ccccc1)C2
percent effect: 1.649

Compound: O=C(N[C@]12CC1CN(C(=O)c1ccco1)C2)c1ccco1 (some centres unmarked)
percent effect: 20.87

Compound: COc1ccc(OC)c(C(C(=O)O)N2CCSCC2)c1 (centres unmarked)
percent effect: 6.834

Compound: CCN1CCCC1CNCc1cc2cc(C)c(C)cc2[nH]c1=O (centres unmarked)
percent effect: 0.8951

Compound: CCc1c(C)nn2c(O)cc(C3CCN(C(=O)c4ccccn4)C3)nc12 (centres unmarked)
percent effect: -4.107

Compound: Cc1ccc(Sc2ccc(N3CCCC(C(=O)O)C3)nn2)cc1 (centres unmarked)
percent effect: 24.7 and 21.38

Compound: Cc1nc(CN2CCCC3(CCN(c4cnn(C)c4)C3=O)C2)cs1.O=C(O)C(F)(F)F (centres unmarked)
percent effect: 9.275

Compound: Cc1ccc(CNC(=O)NCc2cccnc2N(C)C)s1
percent effect: -0.6541

Compound: Cc1nc(NCCO)cc(C(C)Cn2nc(C)c(C)c2C)n1 (centres unmarked)
percent effect: -0.4508

Compound: Cl.Fc1cccc(F)c1Cn1c(C2CCCNC2)cc2cccnc21 (centres unmarked)
percent effect: 9.373

Compound: [H][C@]12CC[C@]([H])(CN(C3Cc4ccccc4C3)C1)N(Cc1nc(C)no1)C2
percent effect: -14.48

Compound: CNc1snc(C)c1C(=O)N1CCCC(n2ccnc2)C1 (centres unmarked)
percent effect: 1.314

Compound: Cc1cc(C)c(CNC(=O)NCC(O)c2ccccc2F)c(=O)[nH]1 (centres unmarked)
percent effect: 18.58

Compound: CCc1nnc2n1CCN(Cc1csc(NC(C)=O)n1)C2
percent effect: 8.943

Compound: COC(=O)c1ccc(N2CCN(C(=O)c3cnccn3)C(C)C2)cc1 (centres unmarked)
percent effect: 1.056

Compound: Cc1nccn1C1CCCN(C(=O)c2cnc[nH]2)C1 (centres unmarked)
percent effect: 0.03286

Compound: CC(C)c1nnc2n1CCN(C(=O)CN(C)Cc1ccccc1)C2
percent effect: 0.1727

Compound: CCOc1ccc(C#N)cc1NCC(=O)Nc1cc(C)no1
percent effect: 7.319

Compound: Cc1cnn(CC(C)NCc2ccc(OCC(N)=O)cc2)c1 (centres unmarked)
percent effect: -21.16 and 2.759 and -7.617

Compound: Cc1ccc(OCC(O)CN2CCC(Cn3cccn3)CC2)cc1 (centres unmarked)
percent effect: 8

Compound: CC(C)NC(=O)[C@@H]1C[C@H](N)CN1C(=O)c1cc2ccccc2[nH]c1=O
percent effect: 4.255

Compound: CN(C)CC(=O)N1CC2(CCN(C(=O)Nc3ccccc3)C2)C1.O=C(O)C(F)(F)F
percent effect: 10.77

Compound: COc1ccc(CNc2cnn(CC(F)F)c2)cc1
percent effect: -6.22

Some entries from above, unchanged:

| Compound | percent effect |
|---|---|
| `COCC(=O)N1CCC(c2nc3ccc(-c4ccccc4)cn3n2)CC1` | 9.635 |
| `Cc1ccc(Sc2ccc(N3CCCC(C(=O)O)C3)nn2)cc1` (centres unmarked) | 24.7 and 21.38 |
| `Cc1cnn(CC(C)NCc2ccc(OCC(N)=O)cc2)c1` (centres unmarked) | -21.16 and 2.759 and -7.617 |